Experimental data as given in PubChem BioAssay AID2711 (National Center for Advancing Translational Sciences (NCATS), 2010).
The inconclusive results got no clear call from the source; some entries with a clear call stand among them for comparison. Potencies beside an inconclusive call are fits to weak or partial responses and may not hold up. The source made the active and inactive calls. The call rests on the fitted dose curve; in most records, active means well fitted inhibition curve with a large enough effect; inconclusive means small, poorly fitted or top-dose-only effect; inactive means no such curve, though single readings can be large or run the other way.

Experiment: Counterscreen for RECQ1 Inhibitors: ADP Fluorescence Polarization Displacement Assay; further: nearly all actives have a fitted effect of over 45% in size
Summary of the method: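 Probe: BODIPY Texas Red-ADP 500 nM; enzyme: RECQ1 300 nM; buffer 25 mM Tris-HCl pH 8.0, 5 mM NaCl, 2 mM MgCl2, 1 mM DTT, 0.01% Tween-20, 2.5 ug/ml poly(dI-dC). 15 min RT, endpoint FP.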
Potency means the concentration at half of the fitted maximal effect.

Compound	Potency
O=c1c2c3c(sc2[nH]c(=S)n1Cc1ccco1)CCC3	inconclusive: 50.1 µM [inhibitor, partial curve]
CC(C)(C)[C@@H]1C=C(C(=O)NCc2ccccc2)O[C@H](OCc2ccc(CO)cc2)C1	inconclusive: 2.82 µM [inhibitor, full curve, poor fit]
C=CCSC1=N/C(=C\C=C\c2ccco2)C(=O)S1	active: 14.1 µM
COCCn1c(=NC(=O)c2ccc(S(=O)(=O)N3CCc4ccccc4C3)cc2)sc2cc(OC)ccc21	inactive
N#Cc1c(-c2ccco2)cc(-c2ccccc2)[nH]c1=O	inconclusive: 50.1 µM [inhibitor, partial curve, poor fit]
C=C1c2cccc(O)c2C(O)=C2C(=O)[C@@]3(O)C(O)=C(C(N)=O)C(=O)[C@@H](N(C)C)[C@@H]3[C@@H](O)[C@H]12	active: 14.1 µM
CC1(OC(=O)c2cccs2)C(=O)C=C2C=C3CCCN3C=C2C1=O (configuration not stated)	active: 35.5 µM
O=C(CCCN1C(=O)/C(=C/c2ccco2)SC1=S)Nc1ccccc1C(=O)O	active: 50.1 µM
CC1(C)OC2CC(=O)OC[C@@]23C1CC(=O)[C@]1(C)C3CC[C@@]2(C)C(c3ccoc3)OC(=O)C3O[C@@]321 (some centres not stated)	inconclusive: 7.08 µM [inhibitor, full curve]
CC(=O)Oc1ccc(C(=O)Nc2ccc3c(c2)C(=O)N(CCC(=O)O)C3=O)cc1	inconclusive: 70.8 µM [inhibitor, partial curve, poor fit]
COc1ccc2nc(NC(=O)C3CCCN(S(=O)(=O)c4cccc5nsnc45)C3)sc2c1 (configuration not stated)	inactive
COc1ccc(CN2C(=O)c3ccccc3C2C(=O)NC2CCCC(C)C2C)c(OC)c1 (configuration not stated)	inactive
C#CCn1c(=NC(=O)c2ccc(S(=O)(=O)N3CCCc4ccccc43)cc2)sc2cc(S(N)(=O)=O)ccc21	inactive
Cc1cc(O)ccc1N=Cc1c(C(F)(F)F)[nH][nH]c1=O	active: 6.31 µM
CCC(C)CCCCC(=O)NC(CCN)C(=O)NC(C(=O)NC(CCN)C(=O)NC1CCNC(=O)C(C(C)O)NC(=O)C(CCN)NC(=O)C(CCN)NC(=O)C(CC(C)C)NC(=O)C(Cc2ccccc2)NC(=O)C(CCN)NC1=O)C(C)O (configuration not stated)	inconclusive: 4.47 µM [inhibitor, full curve]
Cc1ccc(-n2c(Cc3cccn3C)nnc2SCC(=O)NCc2ccco2)cc1	inactive

Compound	Potency
Nc1cccc2c(=O)[nH]ccc12	active: 50.1 µM
O=C(O)c1ccc2c(c1)C(=O)N(c1cccc(C(=O)/C=C/c3ccccc3)c1)C2=O	inactive
Nc1cc2nc[nH]c2cc1N	inconclusive: 12.6 µM [inhibitor, partial curve]
COc1cc(NC(=O)CSc2nc3ccccc3cc2C)c(C(=O)O)cc1OC	inconclusive: 7.08 µM [inhibitor, full curve, poor fit]
O=C(Cn1nnc2ccccc2c1=O)N[C@@H](Cc1c[nH]c2ccccc12)C(=O)O	inactive
Cc1cc(-c2nc3c4c5c(sc4[nH]c(=O)n3n2)CCC5)c(C)o1	inconclusive: 44.7 µM [inhibitor, partial curve]
Cc1ccc(S(=O)(=O)Cc2ccc(C(=O)O)o2)cc1	inconclusive: 56.2 µM [inhibitor, partial curve]
Cc1cc(=O)c2c(O)c3c(O)cc(=O)c4c3c3c(cc(O)c1c23)C(C)(C)C=4O	active: 0.316 µM
CC(C)CNC1=CC(=O)CC(c2ccco2)C1 (configuration not stated)	inconclusive: 63.1 µM [inhibitor, single point]
COc1cc(/C=C/[N+](=O)[O-])ccc1OCc1cccc(C(=O)O)c1	inconclusive: 0.0562 µM [inhibitor, full curve]
CC1CCN(S(=O)(=O)c2ccc3c(c2)CCN3C(=O)CCC(=O)O)CC1	inactive
CCn1cc(C(=O)OCC(=O)Nc2c(C)n(C)n(-c3ccccc3)c2=O)c(=O)c2ccc(C)nc21	inconclusive: 6.31 µM [inhibitor, full curve, poor fit]
CCOc1cc(NC(=O)c2cnccn2)c(OCC)cc1NC(=O)c1cccc(F)c1	inconclusive: 141 µM [inhibitor, partial curve, poor fit]
COc1ccc(C(=O)CC(=O)c2ccc(C(C)(C)C)cc2)cc1	inconclusive: 70.8 µM [inhibitor, partial curve, poor fit]
O=C(O)CCCC(=O)N1CCc2cc(S(=O)(=O)NCc3ccccc3)ccc21	inactive
S=c1[nH]nc(-c2cc(-c3ccco3)[nH]n2)n1-c1ccccc1Cl	inconclusive: 3.55 µM [inhibitor, partial curve, poor fit]

As entered above.
For Potency, C=C1c2cccc(O)c2C(O)=C2C(=O)[C@@]3(O)C(O)=C(C(N)=O)C(=O)[C@@H](N(C)C)[C@@H]3[C@@H](O)[C@H]12 is entered as active: 14.1 µM
For Potency, Cc1cc(=O)c2c(O)c3c(O)cc(=O)c4c3c3c(cc(O)c1c23)C(C)(C)C=4O is entered as active: 0.316 µM
